Data on two molecules can be found in publication PMC10850099.

The chains behind the UniProt entries cited, without tags or fusion partners.
UniProt Q9UJQ4: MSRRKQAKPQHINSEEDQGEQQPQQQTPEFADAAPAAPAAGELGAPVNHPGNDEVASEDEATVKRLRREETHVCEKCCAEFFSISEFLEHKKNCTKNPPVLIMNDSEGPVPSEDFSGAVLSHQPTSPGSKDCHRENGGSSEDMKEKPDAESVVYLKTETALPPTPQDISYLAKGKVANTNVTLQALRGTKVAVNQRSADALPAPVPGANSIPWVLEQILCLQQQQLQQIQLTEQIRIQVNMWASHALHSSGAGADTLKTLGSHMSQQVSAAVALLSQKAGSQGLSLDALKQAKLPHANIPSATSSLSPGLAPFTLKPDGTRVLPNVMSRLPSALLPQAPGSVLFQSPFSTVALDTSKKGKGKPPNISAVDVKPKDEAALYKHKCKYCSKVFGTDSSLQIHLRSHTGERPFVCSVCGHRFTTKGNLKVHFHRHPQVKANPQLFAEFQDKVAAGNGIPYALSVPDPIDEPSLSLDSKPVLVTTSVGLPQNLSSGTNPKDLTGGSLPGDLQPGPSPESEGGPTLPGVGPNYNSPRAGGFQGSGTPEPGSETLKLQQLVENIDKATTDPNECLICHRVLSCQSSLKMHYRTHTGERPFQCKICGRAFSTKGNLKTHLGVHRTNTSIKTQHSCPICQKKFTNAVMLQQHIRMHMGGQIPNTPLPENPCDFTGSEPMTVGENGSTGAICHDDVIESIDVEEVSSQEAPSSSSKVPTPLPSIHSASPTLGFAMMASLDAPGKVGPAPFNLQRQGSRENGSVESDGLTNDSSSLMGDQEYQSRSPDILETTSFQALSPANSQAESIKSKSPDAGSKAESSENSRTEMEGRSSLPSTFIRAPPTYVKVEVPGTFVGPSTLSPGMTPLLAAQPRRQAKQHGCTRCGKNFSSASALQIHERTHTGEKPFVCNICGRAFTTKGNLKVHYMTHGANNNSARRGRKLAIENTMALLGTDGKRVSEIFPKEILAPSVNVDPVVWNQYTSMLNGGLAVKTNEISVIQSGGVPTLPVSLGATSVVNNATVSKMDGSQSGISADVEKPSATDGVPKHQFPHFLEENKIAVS

These are yes or no findings as the source states them, for the method shown. In cells and extracts the contact can be indirect. Here binding means that the protein was enriched with, or labelled near, the bait; the list need not be complete. Sequences can lack the tags named with a protein.

Experiment [1] has as its target T1, Flag-HA-tagged wild type (WT)-REN (UniProt Q693B1).
T1 sequence: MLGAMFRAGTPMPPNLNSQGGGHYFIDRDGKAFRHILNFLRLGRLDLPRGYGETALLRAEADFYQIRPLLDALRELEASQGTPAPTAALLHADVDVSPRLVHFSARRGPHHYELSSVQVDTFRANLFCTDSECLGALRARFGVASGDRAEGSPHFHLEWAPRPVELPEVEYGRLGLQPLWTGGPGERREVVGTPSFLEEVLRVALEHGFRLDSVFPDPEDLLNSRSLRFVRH
Put plainly: affinity purification with mass spectrometry; Flag-HA-REN expressed in HEK293T, MG132 10 µM for 5 h; lysis in 50 mM Tris-HCl pH 7.5, 150 mM NaCl, 1 mM EDTA, 0.5% NP40; anti-Flag agarose, elution with Flag peptide, then anti-HA resin; gel bands digested, LTQ Orbitrap XL.

In experiment [2] the target is T2, Flag-HA-tagged wild type (WT)-REN, Q693B1.
T2 chain: T1 sequence
The experiment is described as above. The following applies: remark: other sources report otherwise.

As for “endogenous SALL4 (from UniProt Q9UJQ4 1-1053)”, in experiment [1], the binding result is “binds”.

B1: KCTD15, Q96SI1 1-283 (protein)
chain: MPHRKERPSGSSLHTHGSTGTAEGGNMSRLSLTRSPVSPLAAQGIPLPAQLTKSNAPVHIDVGGHMYTSSLATLTKYPDSRISRLFNGTEPIVLDSLKQHYFIDRDGEIFRYVLSFLRTSKLLLPDDFKDFSLLYEEARYYQLQPMVRELERWQQEQEQRRRSRACDCLVVRVTPDLGERIALSGEKALIEEVFPETGDVMCNSVNAGWNQDPTHVIRFPLNGYCRLNSVQVLERLFQRGFSVAASCGGGVDSSQFSEYVLCREERRPQPTPTAVRIKQEPLD
For B1, the binding entry in experiment [2] is on record as “binds”.
